Reference: patent US20140370521A1, “IDENTIFICATION OF TWO NOVEL BIOMARKERS FOR NIEMANN-PICK DISEASE TYPE C” (The USA , as Represented by the Secretary, Department of …, priority 2011, published 2014)

B1: Lect2 (protein, UniProt O88803 19-151, looked up)
Leukocyte cell-derived …: GPWANICASKSSNEIRTCDSYGCGQYSAQRTQRHHPGVDVLCSDGSVVYAPFTGKIVGQEKPYRNKNAINDGIRLSGRGFCVKIFYIKPIKYKGSIKKGEKLGTLLPLQKIYPGIQSHVHVENCDSSDPTAYL
B2: Lpl (protein, UniProt P11152 28-474, looked up)
Lipoprotein lipase: ADAGRDFSDIESKFALRTPEDTAEDTCHLIPGLADSVSNCHFNHSSKTFVVIHGWTVTGMYESWVPKLVAALYKREPDSNVIVVDWLYRAQQHYPVSAGYTKLVGNDVARFINWMEEEFNYPLDNVHLLGYSLGAHAAGVAGSLTNKKVNRITGLDPAGPNFEYAEAPSRLSPDDADFVDVLHTFTRGSPGRSIGIQKPVGHVDIYPNGGTFQPGCNIGEAIRVIAERGLGDVDQLVKCSHERSIHLFIDSLLNEENPSKAYRCNSKEAFEKGLCLSCRKNRCNNLGYEINKVRAKRSSKMYLKTRSQMPYKVFHYQVKIHFSGTEDGKQHNQAFEISLYGTVAESENIPFTLPEVSTNKTYSFLIYTEVDIGELLMMKLKWISDSYFSWPDWWSSPSFVIERIRVKAGETQKKVIFCAREKVSHLQKGKDSAVFVKCHDKSLKKSG
B3: Loxl2 (protein, UniProt P58022 26-776, looked up)
Lysyl oxidase homolog 2: QYEGWPYQLQYPEYFQQPAPEHHQRQVPSDVVKIQVRLAGQKRKHNEGRVEVYYEGQWGTVCDDDFSIHAAHVVCRQVGYVEAKSWAASSSYGPGEGPIWLDNIYCTGKESTLASCSSNGWGVTDCKHTEDVGVVCSEKRIPGFKFDNSLINQIESLNIQVEDIRIRPILSAFRHRKPVTEGYVEVKEGKAWKQICNKHWTAKNSHVVCGMFGFPAEKTYNPKAYKTFASRRKLRYWKFSMNCTGTEAHISSCKLGPSVTRDPVKNATCENGQPAVVSCVPSQIFSPDGPSRFRKAYKPEQPLVRLRGGAQVGEGRVEVLKNGEWGTICDDKWDLVSASVVCRELGFGTAKEAITGSRLGQGIGPIHLNEVQCTGTEKSIIDCKFNTESQGCNHEEDAGVRCNIPIMGFQKKVRLNGGRNPYEGRVEVLTERNGSLVWGTVCGQNWGIVEAMVVCRQLGLGFASNAFQETWYWHGNIFANNVVMSGVKCSGTELSLAHCRHDEEVACPEGGVRFGAGVACSETAPDLVLNAEIVQQTAYLEDRPMSLLQCAMEENCLSASAVHTDPTRGHRRLLRFSSQIHNNGQSDFRPKNGRHAWIWHDCHRHYHSMEVFTYYDLLSLNGTKVAEGHKASFCLEDTECEGDIQKSYECANFGEQGITMGCWDMYRHDIDCQWIDITDVPPGDYLFQVVINPNYEVPESDFSNNIMKCRSRYDGYRIWMYNCHVGGAFSEETEQKFEHFSGLLNNQLSVQ

Test system: Npc1-/- mouse liver
Assay: Liver gene expression microarray, Npc1-/- versus control mice (Affymetrix Mouse GeneChip 1.0 ST)
Details: negative = lower in Npc1−/−
[1] = head prints "weeks" (column between 7 weeks and 11 weeks)

Row | Molecule | FC (fold-change of expression between Npc1−/− and control mice) (1 week of age) | FC (fold-change of expression between Npc1−/− and control mice) (7 weeks of age) | FC (fold-change of expression between Npc1−/− and control mice) (11 weeks of age) | FC (fold-change of expression between Npc1−/− and control mice) [1] | FC (fold-change of expression between Npc1−/− and control mice) (5 weeks of age)
1 | B1 | −1.36 | −1.47 | −2.18 | −1.35 | –
2 | B2 | – | 9.91 | 15.62 | 13.13 | 4.66
3 | B3 | 1.39 | 1.39 | 1.32 | – | 1.30

The expression values are mRNA levels of the gene; the protein chain is shown to identify it.
